# Measured values from the supplement of paper PMC10849652.
# Amino acid sequences for entries named in this document (tags omitted). A change or cut given only in a name is not applied to a line headed by its entry.
# UniProt Q9NWM0: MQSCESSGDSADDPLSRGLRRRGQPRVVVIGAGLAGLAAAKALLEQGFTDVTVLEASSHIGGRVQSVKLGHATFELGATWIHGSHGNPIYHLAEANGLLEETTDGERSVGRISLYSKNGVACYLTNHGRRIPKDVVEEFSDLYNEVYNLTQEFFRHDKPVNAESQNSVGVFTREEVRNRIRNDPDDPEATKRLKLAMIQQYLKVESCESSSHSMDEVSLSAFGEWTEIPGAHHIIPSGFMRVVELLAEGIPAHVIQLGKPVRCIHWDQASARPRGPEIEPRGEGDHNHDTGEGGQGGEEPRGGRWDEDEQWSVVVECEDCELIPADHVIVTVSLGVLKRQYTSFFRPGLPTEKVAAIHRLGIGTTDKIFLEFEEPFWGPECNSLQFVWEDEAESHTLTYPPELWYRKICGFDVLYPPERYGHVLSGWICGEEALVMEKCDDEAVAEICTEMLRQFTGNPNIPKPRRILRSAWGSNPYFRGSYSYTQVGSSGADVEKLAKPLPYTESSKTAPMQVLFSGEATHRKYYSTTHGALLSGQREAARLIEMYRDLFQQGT
# UniProt Q92484: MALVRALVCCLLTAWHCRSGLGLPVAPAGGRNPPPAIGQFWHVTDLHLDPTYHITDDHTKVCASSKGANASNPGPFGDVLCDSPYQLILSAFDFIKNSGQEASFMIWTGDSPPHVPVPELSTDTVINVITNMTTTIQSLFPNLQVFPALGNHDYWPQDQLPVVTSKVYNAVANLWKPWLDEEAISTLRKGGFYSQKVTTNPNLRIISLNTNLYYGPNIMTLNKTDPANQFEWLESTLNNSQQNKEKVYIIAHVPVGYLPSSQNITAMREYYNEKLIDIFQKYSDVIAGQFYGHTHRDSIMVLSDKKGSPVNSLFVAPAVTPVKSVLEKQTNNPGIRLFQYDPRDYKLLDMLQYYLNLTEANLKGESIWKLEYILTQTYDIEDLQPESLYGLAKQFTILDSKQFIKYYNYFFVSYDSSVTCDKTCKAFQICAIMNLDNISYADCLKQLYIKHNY
# UniProt Q9NXE4: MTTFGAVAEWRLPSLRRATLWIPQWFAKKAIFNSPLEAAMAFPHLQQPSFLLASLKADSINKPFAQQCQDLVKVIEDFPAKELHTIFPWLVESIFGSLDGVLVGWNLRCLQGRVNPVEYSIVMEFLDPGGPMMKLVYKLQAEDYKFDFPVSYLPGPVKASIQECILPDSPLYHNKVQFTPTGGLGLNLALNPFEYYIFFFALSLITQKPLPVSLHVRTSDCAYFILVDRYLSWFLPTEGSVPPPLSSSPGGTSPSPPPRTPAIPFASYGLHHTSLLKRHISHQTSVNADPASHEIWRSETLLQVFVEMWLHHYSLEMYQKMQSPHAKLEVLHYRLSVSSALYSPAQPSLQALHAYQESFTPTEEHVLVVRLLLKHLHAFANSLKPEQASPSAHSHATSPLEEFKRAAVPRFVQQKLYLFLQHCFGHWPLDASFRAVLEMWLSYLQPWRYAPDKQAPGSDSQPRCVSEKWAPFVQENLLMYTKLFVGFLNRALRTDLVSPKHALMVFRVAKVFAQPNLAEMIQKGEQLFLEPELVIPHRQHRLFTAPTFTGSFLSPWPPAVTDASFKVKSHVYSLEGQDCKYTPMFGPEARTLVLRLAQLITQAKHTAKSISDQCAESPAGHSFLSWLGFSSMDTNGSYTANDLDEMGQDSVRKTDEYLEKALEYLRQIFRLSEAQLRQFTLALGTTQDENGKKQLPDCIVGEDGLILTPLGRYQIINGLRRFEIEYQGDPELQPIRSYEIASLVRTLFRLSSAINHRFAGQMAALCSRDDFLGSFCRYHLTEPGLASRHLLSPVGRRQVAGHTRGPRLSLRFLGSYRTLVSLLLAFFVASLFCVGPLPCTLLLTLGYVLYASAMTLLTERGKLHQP
# UniProt Q86T20: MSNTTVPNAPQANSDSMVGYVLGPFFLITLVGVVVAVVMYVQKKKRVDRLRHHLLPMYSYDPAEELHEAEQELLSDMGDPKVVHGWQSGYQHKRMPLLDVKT
# UniProt Q8TAQ2, whole entry, looked up: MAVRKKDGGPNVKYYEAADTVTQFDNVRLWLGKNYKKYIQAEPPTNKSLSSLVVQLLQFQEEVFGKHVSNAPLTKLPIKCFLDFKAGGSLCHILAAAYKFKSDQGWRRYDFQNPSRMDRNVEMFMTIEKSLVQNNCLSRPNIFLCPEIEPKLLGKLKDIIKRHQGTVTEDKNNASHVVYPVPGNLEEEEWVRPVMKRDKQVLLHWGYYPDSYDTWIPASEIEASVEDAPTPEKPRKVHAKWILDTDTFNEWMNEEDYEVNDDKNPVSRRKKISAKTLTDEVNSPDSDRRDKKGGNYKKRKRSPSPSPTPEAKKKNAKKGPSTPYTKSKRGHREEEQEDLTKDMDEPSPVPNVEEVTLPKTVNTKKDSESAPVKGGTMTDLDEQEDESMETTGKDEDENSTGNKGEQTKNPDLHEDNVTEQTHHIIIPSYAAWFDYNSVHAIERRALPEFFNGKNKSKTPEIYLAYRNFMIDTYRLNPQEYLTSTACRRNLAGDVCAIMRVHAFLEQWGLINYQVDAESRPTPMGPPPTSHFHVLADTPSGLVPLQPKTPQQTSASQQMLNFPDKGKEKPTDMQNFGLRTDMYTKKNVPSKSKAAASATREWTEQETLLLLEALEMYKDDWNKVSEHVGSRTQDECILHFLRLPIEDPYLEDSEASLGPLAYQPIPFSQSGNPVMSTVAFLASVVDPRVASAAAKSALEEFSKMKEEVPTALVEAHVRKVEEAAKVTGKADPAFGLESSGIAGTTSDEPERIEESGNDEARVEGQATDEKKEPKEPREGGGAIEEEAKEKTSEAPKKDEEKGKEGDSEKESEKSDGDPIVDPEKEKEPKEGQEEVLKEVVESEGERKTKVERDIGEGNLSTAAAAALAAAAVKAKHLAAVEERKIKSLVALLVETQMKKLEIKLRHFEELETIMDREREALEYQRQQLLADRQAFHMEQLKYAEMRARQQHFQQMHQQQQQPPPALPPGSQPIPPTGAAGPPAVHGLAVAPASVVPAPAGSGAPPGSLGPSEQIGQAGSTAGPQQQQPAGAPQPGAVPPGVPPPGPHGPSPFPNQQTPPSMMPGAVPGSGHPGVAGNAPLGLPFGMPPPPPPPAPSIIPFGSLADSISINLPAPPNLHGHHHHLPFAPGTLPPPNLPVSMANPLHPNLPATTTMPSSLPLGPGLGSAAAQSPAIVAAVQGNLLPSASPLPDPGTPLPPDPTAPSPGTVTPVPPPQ
# UniProt P02814: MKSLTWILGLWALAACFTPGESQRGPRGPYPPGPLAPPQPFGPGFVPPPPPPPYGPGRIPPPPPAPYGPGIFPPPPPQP
# UniProt Q9Y5X0: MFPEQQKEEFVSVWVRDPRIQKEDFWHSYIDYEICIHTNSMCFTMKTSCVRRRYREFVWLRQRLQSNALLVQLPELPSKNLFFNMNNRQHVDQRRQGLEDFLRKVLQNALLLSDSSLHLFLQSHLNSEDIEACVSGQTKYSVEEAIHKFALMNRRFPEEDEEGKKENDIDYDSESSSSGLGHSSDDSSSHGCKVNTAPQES
# UniProt P08294: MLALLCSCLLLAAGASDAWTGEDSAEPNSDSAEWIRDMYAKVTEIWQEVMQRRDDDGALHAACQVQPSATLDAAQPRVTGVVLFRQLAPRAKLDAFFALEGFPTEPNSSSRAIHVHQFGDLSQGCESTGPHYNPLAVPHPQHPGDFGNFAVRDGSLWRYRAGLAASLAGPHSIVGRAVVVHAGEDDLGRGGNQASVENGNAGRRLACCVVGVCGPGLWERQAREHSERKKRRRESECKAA
# UniProt Q92485: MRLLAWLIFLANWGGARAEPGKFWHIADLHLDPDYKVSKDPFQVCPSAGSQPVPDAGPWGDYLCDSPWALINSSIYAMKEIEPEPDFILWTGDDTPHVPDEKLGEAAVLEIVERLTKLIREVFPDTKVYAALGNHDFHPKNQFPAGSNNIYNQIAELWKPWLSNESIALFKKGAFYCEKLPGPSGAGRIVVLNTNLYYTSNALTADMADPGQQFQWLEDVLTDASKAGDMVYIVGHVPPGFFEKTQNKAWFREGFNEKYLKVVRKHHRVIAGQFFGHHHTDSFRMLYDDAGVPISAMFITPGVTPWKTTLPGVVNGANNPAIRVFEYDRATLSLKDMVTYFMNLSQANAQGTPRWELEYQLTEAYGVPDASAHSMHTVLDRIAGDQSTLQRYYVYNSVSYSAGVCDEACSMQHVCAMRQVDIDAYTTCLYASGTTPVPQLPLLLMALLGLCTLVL
# UniProt Q16560: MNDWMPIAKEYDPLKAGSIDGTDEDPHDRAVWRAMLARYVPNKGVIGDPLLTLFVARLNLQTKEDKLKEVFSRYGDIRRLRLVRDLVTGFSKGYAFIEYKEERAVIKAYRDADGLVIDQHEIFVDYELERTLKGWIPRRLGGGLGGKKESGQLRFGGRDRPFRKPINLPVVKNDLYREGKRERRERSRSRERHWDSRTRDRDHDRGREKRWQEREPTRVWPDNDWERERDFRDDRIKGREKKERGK
# UniProt Q07617: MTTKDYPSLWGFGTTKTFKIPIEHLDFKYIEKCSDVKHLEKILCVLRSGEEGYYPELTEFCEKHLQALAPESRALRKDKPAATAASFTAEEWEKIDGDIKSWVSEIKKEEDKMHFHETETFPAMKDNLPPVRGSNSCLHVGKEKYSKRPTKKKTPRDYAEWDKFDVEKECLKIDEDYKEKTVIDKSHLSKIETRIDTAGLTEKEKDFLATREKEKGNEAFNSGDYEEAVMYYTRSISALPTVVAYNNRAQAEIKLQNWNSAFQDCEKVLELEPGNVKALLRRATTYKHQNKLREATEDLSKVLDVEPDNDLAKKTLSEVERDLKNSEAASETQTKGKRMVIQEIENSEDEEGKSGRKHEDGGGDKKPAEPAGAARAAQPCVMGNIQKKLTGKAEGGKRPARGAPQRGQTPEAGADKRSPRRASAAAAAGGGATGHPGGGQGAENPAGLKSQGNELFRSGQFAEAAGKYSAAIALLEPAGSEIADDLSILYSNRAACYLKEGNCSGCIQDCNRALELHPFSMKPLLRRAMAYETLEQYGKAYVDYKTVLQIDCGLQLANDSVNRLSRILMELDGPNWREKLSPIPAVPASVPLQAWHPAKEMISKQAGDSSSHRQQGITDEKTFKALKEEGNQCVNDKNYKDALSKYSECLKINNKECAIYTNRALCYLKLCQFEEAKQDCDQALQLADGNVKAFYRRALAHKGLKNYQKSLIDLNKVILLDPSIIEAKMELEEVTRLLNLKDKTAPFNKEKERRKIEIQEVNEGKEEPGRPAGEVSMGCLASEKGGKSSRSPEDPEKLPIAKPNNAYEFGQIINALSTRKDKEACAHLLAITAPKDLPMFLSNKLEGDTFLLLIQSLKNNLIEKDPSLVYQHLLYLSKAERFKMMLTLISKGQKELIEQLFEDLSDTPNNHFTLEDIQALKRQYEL
# UniProt Q15506: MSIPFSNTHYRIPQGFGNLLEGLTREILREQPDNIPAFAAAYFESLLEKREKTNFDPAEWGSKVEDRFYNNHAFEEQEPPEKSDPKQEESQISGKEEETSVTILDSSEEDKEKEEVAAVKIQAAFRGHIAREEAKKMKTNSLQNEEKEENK
# UniProt P0DJ93: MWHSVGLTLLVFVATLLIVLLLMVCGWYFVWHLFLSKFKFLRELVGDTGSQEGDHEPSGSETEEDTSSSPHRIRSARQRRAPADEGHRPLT
# UniProt Q8WV41: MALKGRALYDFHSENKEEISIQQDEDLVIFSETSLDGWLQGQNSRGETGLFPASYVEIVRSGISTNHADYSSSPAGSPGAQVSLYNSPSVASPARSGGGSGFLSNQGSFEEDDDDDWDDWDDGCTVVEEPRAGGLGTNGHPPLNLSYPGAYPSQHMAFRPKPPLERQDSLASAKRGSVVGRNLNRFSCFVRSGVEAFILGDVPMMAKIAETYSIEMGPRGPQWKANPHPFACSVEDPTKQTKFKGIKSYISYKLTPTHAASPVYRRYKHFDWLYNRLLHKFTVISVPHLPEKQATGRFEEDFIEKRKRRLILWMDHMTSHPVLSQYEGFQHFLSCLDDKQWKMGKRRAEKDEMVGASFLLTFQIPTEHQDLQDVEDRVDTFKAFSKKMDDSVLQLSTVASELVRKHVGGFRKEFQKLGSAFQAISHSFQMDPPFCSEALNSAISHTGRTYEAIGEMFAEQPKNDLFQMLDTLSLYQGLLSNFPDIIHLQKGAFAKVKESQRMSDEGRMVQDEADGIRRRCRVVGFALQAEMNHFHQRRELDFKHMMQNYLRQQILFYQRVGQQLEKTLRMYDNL
# UniProt O15370: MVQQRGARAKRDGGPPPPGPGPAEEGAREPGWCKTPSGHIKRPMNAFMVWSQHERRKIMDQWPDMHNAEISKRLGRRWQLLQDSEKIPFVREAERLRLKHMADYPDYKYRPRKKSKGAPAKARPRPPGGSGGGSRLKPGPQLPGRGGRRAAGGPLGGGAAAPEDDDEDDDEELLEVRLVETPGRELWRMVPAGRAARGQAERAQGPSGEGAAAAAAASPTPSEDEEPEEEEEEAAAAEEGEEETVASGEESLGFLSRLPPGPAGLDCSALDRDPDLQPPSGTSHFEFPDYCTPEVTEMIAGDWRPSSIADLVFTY
# UniProt Q96E16: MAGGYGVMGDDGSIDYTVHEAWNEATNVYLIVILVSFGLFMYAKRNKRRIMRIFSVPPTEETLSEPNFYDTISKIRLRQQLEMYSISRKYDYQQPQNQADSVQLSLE
# This is one part of the list.
# How the values were obtained:
# Test in all cases: log2 fold change, soluble protein after heating vs DMSO (PISA); higher = thermal stabilisation; K562 lysate, 10 uM; active = over 0.2 and 3.5 SD of the protein, either way, in both replicates (recomputed)
# erlotinib = compound: C#Cc1cccc(Nc2ncnc3cc(OCCOC)c(OCCOC)cc23)c1 [erlotinib]
# Summary of the method: (§1)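 K562 pellets were dounce-homogenised in PBS pH 7.4 with 1 mM MgCl2, and the crude extract at 1 mg/mL protein was treated with 10 μM compound for 30 min. Aliquots were heated for 3 min across 48°C-58°C, pooled, and brought to 0.5% NP-40 at 4°C; soluble protein was the supernatant after 21,000xg for 90 min. Soluble protein was quantified by TMTpro 16plex LC-MS/MS with channel sums equalised, and reported as log2 fold change in thermal stability against DMSO controls, with values from duplicates.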
# [1] = compound: C1=CC(=CC=C1C2=NC3=C(N2)C=C(C=C3)C(=O)N)OC4=CC=C(C=C4)Cl
# Summary of the method: as §1
# [2] = compound: CC(=O)c1cnc2ccc(-c3cc(Cl)c(O)c(Cl)c3)nc2c1N[C@H]1CC[C@H](CN(C)C)CC1
# Summary of the method: as §1
# [3] = compound: CC(C)C1=C2N=C(C=C(N2N=C1)NCC3=CC=CC=C3)NCCCCCCN
# Summary of the method: as §1
# [4] = compound: CC1=C(C2=C(C=C1)C(=O)C3=CC=CC=C3N2CCCN)C
# Summary of the method: as §1
# [5] = compound: CC1=CC=C(C=C1)SC2=C3C=C(SC3=CN=C2)C(=O)N
# Summary of the method: as §1
# [6] = compound: C/C(=N\NC(=O)C1=CC(=CC=C1)S(=O)(=O)N2CCOCC2)/C3=C(C=CC(=C3)Cl)O
# Summary of the method: as §1
# [7] = compound: C1=CC2=C(C=CC(=C2)/C=C\3/C(=O)NC(=NCC4=CC=CS4)S3)N=C1
# Summary of the method: as §1
# [8] = compound: C1=CC=C2C(=C1)C3=NNC4=CC=CC(=C43)C2=O
# Summary of the method: as §1
# [9] = compound: C1CCN(C1)C(=O)NC2=CC=CC(=C2)NC3=NC=C(C(=N3)NCCC4=CN=CN4)Br
# Summary of the method: as §1
# [10] = compound: C1CN(CCC1(CC2=CC=C(C=C2)Cl)N)C3=NC=NC4=C3C=CN4
# Summary of the method: as §1
# [11] = compound: C1=CC2=NC=CN=C2C=C1/C=C/3\C(=O)NC(=O)S3
# Summary of the method: as §1
# [12] = compound: C1=CC=C(C=C1)C2=NC(=C(N2)C3=CC=NC=C3)C4=CC(=C(C=C4)Cl)O
# Summary of the method: as §1
# IRAK-1-4 Inhibitor I = compound: C1COCCN1CCN2C3=CC=CC=C3N=C2NC(=O)C4=CC(=CC=C4)[N+](=O)[O-] [IRAK-1-4 Inhibitor I]
# Summary of the method: as §1
# ibrutinib = compound: C=CC(=O)N1CCC[C@@H](n2nc(-c3ccc(Oc4ccccc4)cc3)c3c(N)ncnc32)C1 [ibrutinib]
# Summary of the method: as §1
# ralimetinib = compound: CC(C)(C)Cn1c(N)nc2ccc(-c3[nH]c(C(C)(C)C)nc3-c3ccc(F)cc3)nc21 [ralimetinib]
# Summary of the method: as §1
# [13] = compound: CC(C)(O)CC(=O)NCCn1ccc2ncnc(Nc3ccc(Oc4cccc(C(F)(F)F)c4)c(Cl)c3)c21
# Summary of the method: as §1
# [14] = compound: CC1=C(C(CC(=O)N1)C2=CC=C(C=C2)C(F)(F)F)C(=O)NC3=C(C=C4C(=C3)C=NN4)F
# Summary of the method: as §1
# [15] = compound: CC1=C(C=C(C=C1)NC(=O)C2=CC(=CC=C2)N(C)C)NC(=O)C3=CC=C(C=C3)O
# Summary of the method: as §1
# [16] = compound: CC1=C(C=C(C=C1)NC(=O)C2=CC(=CC=C2)C(C)(C)C#N)NC3=CC4=C(C=C3)N=CN(C4=O)C
# Summary of the method: as §1
target,measurement,setting,value
SMOX isoform 6 (UniProt Q9NWM0),log2 fold change,erlotinib,inactive: 0.118
same,log2 fold change,[1],inactive: 0.024
same,log2 fold change,[2],inactive: 0.128
same,log2 fold change,[3],inactive: 0.055
same,log2 fold change,[4],inactive: -0.045
same,log2 fold change,[5],inactive: -0.2
SMPDL3A (UniProt Q92484),log2 fold change,[6],inactive: -0.034
same,log2 fold change,[7],inactive: -0.107
same,log2 fold change,[8],inactive: 0.121
same,log2 fold change,[9],inactive: 0.098
same,log2 fold change,[10],inactive: 0.144
same,log2 fold change,[2],inactive: 0.1
same,log2 fold change,[5],inactive: 0.114
SMPD4 isoform 4 (UniProt Q9NXE4),log2 fold change,[6],inactive: -0.178
same,log2 fold change,[7],inactive: 0.086
same,log2 fold change,[11],inactive: 0.055
same,log2 fold change,[12],inactive: -0.252
same,log2 fold change,[8],inactive: -0.158
same,log2 fold change,[9],inactive: -0.014
same,log2 fold change,[10],inactive: 0.089
same,log2 fold change,IRAK-1-4 Inhibitor I,inactive: -0.314
same,log2 fold change,ibrutinib,inactive: 0.026
same,log2 fold change,ralimetinib,inactive: -0.047
same,log2 fold change,[13],inactive: 0.641
same,log2 fold change,[14],inactive: 0.003
same,log2 fold change,[15],inactive: 0.068
SMIM29 (UniProt Q86T20),log2 fold change,[2],inactive: -0.084
same,log2 fold change,[5],inactive: -0.038
SP2 (UniProt Q02086),log2 fold change,[11],inactive: 0.045
same,log2 fold change,[9],inactive: -0.188
same,log2 fold change,[10],inactive: -0.028
same,log2 fold change,ibrutinib,inactive: 0.096
same,log2 fold change,[14],inactive: 0.089
same,log2 fold change,[4],inactive: -0.022
same,log2 fold change,[16],inactive: 0.033
SMARCC2 isoform 3 (UniProt Q8TAQ2),log2 fold change,[11],inactive: -0.021
same,log2 fold change,[12],inactive: 0.006
same,log2 fold change,IRAK-1-4 Inhibitor I,inactive: -0.123
same,log2 fold change,ibrutinib,inactive: 0.136
same,log2 fold change,[2],inactive: -0.036
same,log2 fold change,ralimetinib,inactive: 0.024
same,log2 fold change,[13],inactive: -0.043
same,log2 fold change,[14],inactive: -0.052
same,log2 fold change,[4],inactive: 0.027
same,log2 fold change,[16],inactive: -0.052
same,log2 fold change,[15],inactive: -0.084
same,log2 fold change,[5],inactive: -0.108
SMR3B (UniProt P02814),log2 fold change,[12],inactive: -0.071
same,log2 fold change,[9],inactive: -0.139
same,log2 fold change,[10],inactive: -0.138
same,log2 fold change,IRAK-1-4 Inhibitor I,inactive: 0.004
same,log2 fold change,ralimetinib,inactive: -0.012
same,log2 fold change,[13],inactive: 0.291
same,log2 fold change,[16],inactive: 0.056
same,log2 fold change,[15],inactive: -0.075
SNX10 (UniProt Q9Y5X0),log2 fold change,erlotinib,inactive: 0.003
same,log2 fold change,[1],inactive: 0.052
same,log2 fold change,[12],inactive: 0.102
same,log2 fold change,IRAK-1-4 Inhibitor I,inactive: -0.094
same,log2 fold change,ralimetinib,inactive: -0.055
same,log2 fold change,[13],inactive: 0.081
same,log2 fold change,[3],inactive: 0.002
same,log2 fold change,[4],inactive: -0.076
same,log2 fold change,[16],inactive: -0.017
same,log2 fold change,[15],inactive: 0.068
"SMIM26, A0A096LP01",log2 fold change,[12],inactive: 0.214
same,log2 fold change,IRAK-1-4 Inhibitor I,inactive: 0.031
same,log2 fold change,ralimetinib,inactive: 0.163
same,log2 fold change,[13],inactive: -0.03
same,log2 fold change,[14],inactive: 0.003
same,log2 fold change,[15],inactive: -0.125
SOD3 (UniProt P08294),log2 fold change,[6],inactive: -0.07
same,log2 fold change,[7],inactive: 0.079
same,log2 fold change,[11],inactive: 0.018
same,log2 fold change,[8],inactive: 0.014
same,log2 fold change,[9],inactive: 0.161
same,log2 fold change,[10],inactive: 0.018
same,log2 fold change,ibrutinib,inactive: -0.009
same,log2 fold change,[2],inactive: 0.148
same,log2 fold change,[5],inactive: -0.025
SNRPA1 (UniProt H0YMA0),log2 fold change,[2],inactive: -0.068
same,log2 fold change,[5],inactive: 0.08
SMPDL3B (UniProt Q92485),log2 fold change,[6],inactive: -0.049
same,log2 fold change,[7],inactive: -0.158
same,log2 fold change,[12],inactive: 0.036
same,log2 fold change,[8],inactive: 0.127
same,log2 fold change,[9],inactive: 0.444
same,log2 fold change,[10],inactive: 0.176
same,log2 fold change,IRAK-1-4 Inhibitor I,inactive: -0.015
same,log2 fold change,[2],inactive: -0.013
same,log2 fold change,ralimetinib,inactive: 0.126
same,log2 fold change,[13],inactive: -0.016
same,log2 fold change,[4],inactive: -0.076
same,log2 fold change,[16],inactive: 0.022
same,log2 fold change,[15],inactive: 0.087
same,log2 fold change,[5],inactive: 0.069
SPAG9 isoform 4 (UniProt O60271),log2 fold change,[6],inactive: 0.108
same,log2 fold change,[7],inactive: 0.059
same,log2 fold change,[11],inactive: 0.048
same,log2 fold change,[12],inactive: 0.058
same,log2 fold change,[8],inactive: 0.008
same,log2 fold change,[9],inactive: 0.047
same,log2 fold change,[10],inactive: 0.115
same,log2 fold change,IRAK-1-4 Inhibitor I,inactive: -0.06
same,log2 fold change,ibrutinib,inactive: -0.003
same,log2 fold change,ralimetinib,inactive: 0.03
same,log2 fold change,[13],inactive: -0.048
same,log2 fold change,[16],inactive: 0.046
same,log2 fold change,[15],inactive: 0.009
SON isoform 6 (UniProt P18583),log2 fold change,[12],inactive: -0.075
same,log2 fold change,IRAK-1-4 Inhibitor I,inactive: -0.062
same,log2 fold change,ralimetinib,inactive: -0.038
same,log2 fold change,[13],inactive: 0.03
same,log2 fold change,[14],inactive: -0.147
same,log2 fold change,[15],inactive: 0.059
SNRNP35 isoform 2 (UniProt Q16560),log2 fold change,[14],inactive: 0.055
same,log2 fold change,[4],inactive: -0.103
SPAG1 (UniProt Q07617),log2 fold change,[6],inactive: -0.045
same,log2 fold change,[7],inactive: -0.089
same,log2 fold change,[11],active: 1.01
same,log2 fold change,[12],inactive: -0.034
same,log2 fold change,[8],inactive: -0.063
same,log2 fold change,IRAK-1-4 Inhibitor I,inactive: 0.042
same,log2 fold change,ibrutinib,inactive: 0.034
same,log2 fold change,[2],inactive: 0.282
same,log2 fold change,ralimetinib,inactive: -0.017
same,log2 fold change,[13],inactive: -0.17
same,log2 fold change,[16],inactive: 0.15
same,log2 fold change,[15],inactive: 0.079
same,log2 fold change,[5],inactive: -0.198
SPA17 (UniProt Q15506),log2 fold change,[6],inactive: -0.047
same,log2 fold change,[7],inactive: 0.01
same,log2 fold change,[11],inactive: -0.033
same,log2 fold change,[12],inactive: -0.018
same,log2 fold change,[8],inactive: -0.106
same,log2 fold change,[9],inactive: -0.076
same,log2 fold change,[10],inactive: -0.029
same,log2 fold change,IRAK-1-4 Inhibitor I,inactive: 0
same,log2 fold change,ibrutinib,inactive: 0.056
same,log2 fold change,[2],inactive: 0.028
same,log2 fold change,ralimetinib,inactive: 0.006
same,log2 fold change,[13],inactive: -0.098
same,log2 fold change,[4],inactive: 0.051
same,log2 fold change,[16],inactive: -0.053
same,log2 fold change,[15],inactive: 0.026
same,log2 fold change,[5],inactive: -0.058
SMIM13 (UniProt P0DJ93),log2 fold change,erlotinib,inactive: -0.014
same,log2 fold change,[1],inactive: 0.057
same,log2 fold change,[3],inactive: 0.081
same,log2 fold change,[16],inactive: 0.037
SNX33 (UniProt Q8WV41),log2 fold change,[11],inactive: -0.006
same,log2 fold change,[12],inactive: 0.086
same,log2 fold change,IRAK-1-4 Inhibitor I,inactive: -0.314
same,log2 fold change,ibrutinib,inactive: 0.101
same,log2 fold change,ralimetinib,inactive: -0.005
same,log2 fold change,[13],inactive: -0.168
same,log2 fold change,[14],inactive: -0.026
same,log2 fold change,[4],inactive: 0.006
same,log2 fold change,[16],inactive: 0.022
same,log2 fold change,[15],inactive: 0.135
SOX12 (UniProt O15370),log2 fold change,[6],inactive: -0.476
same,log2 fold change,[7],inactive: -0.003
same,log2 fold change,[11],inactive: -0.056
same,log2 fold change,[8],inactive: 0.207
same,log2 fold change,ibrutinib,inactive: -0.02
same,log2 fold change,[4],inactive: 0.047
same,log2 fold change,[16],inactive: -0.037
SNAPC1 (UniProt Q16533),log2 fold change,[14],inactive: -0.058
same,log2 fold change,[16],inactive: 0.016
SMIM19 (UniProt Q96E16),log2 fold change,[12],inactive: 0.103
same,log2 fold change,IRAK-1-4 Inhibitor I,inactive: -0.204
same,log2 fold change,ralimetinib,inactive: -0.042
same,log2 fold change,[13],inactive: -0.332
same,log2 fold change,[15],inactive: -0.285
